Measured values as given in article PMC9507969.
No constants are given. Whether binding was seen depends on the method and setting. In cells and extracts the contact can be indirect. Some results given as binding are weak or reduced against the parent protein; the word gives no strength.

The chains behind the UniProt entries cited, without tags or fusion partners.
UniProt P53742: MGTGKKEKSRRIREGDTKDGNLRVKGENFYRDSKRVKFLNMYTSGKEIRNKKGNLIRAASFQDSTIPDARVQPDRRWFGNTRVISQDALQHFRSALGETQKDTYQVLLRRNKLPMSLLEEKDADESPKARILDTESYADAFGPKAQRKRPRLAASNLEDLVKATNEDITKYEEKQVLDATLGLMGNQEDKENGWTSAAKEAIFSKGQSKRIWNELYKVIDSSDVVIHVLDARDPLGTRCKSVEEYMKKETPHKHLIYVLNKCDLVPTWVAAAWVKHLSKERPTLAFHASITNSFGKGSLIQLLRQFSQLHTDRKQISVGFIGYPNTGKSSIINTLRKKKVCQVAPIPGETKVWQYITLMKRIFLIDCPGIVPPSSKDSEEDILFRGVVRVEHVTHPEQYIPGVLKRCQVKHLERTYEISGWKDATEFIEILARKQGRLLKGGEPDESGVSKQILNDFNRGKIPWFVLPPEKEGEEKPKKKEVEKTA
UniProt Q12522: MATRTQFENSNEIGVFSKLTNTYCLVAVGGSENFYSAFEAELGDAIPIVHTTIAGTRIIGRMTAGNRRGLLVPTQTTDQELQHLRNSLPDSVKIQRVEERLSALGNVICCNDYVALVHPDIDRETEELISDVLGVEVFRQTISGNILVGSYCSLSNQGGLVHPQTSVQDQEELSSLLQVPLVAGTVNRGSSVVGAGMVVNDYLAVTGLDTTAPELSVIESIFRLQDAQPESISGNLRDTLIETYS

Target: T1, Bud20-TAP (S. cerevisiae) (UniProt Q08004)
T1 sequence: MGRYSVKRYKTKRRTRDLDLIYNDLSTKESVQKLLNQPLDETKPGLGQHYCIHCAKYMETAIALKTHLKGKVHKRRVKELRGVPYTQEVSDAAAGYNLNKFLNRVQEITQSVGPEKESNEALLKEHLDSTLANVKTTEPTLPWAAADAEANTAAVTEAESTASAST
Assay: co-IP; affinity purification of pre-60S particles via Bud20-TAP from S. cerevisiae crm1^T539C (untreated, LmB and/or diazaborine; ARX1 or Δarx1 background), SDS-PAGE and western blotting

binding	Substance
binds	Nog2 (from UniProt P53742 1-486)
binds	Tif6 on the pre-60S particle (from UniProt Q12522 1-245)
